{"sequences": {"note": "Chains of the proteins cited; added tags and fusions are not shown.", "UniProt Q13585": "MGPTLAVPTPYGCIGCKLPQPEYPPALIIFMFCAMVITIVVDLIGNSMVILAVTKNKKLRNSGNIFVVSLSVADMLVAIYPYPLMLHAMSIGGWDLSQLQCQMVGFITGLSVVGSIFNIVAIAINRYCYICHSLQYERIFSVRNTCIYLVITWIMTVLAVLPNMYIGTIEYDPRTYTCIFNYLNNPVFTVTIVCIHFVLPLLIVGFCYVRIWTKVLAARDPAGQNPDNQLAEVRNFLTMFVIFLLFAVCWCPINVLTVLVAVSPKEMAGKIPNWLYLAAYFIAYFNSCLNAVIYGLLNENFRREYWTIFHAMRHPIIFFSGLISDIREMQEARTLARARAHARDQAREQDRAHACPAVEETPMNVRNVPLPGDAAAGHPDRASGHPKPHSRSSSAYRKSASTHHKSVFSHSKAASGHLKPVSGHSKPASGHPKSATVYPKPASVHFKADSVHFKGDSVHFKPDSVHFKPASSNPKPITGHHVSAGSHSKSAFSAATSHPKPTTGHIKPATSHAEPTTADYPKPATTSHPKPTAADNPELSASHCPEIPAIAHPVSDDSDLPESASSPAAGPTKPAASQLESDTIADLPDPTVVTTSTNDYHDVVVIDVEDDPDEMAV"}, "source": "paper PMC11324738", "molecular_target": "GPR50-V1 and GPR50-V2 homodimer (GPR50 fused to the V1 or V2 segment of Venus, BiCAP bait) (human) (UniProt Q13585)", "experiment": "split reporter; Venus segments V1 and V2 fused to GPR50, co-transfected in HEK 293T; the complemented homodimers captured with GFP-trap beads", "note": "Results are given in words; binding and its absence hold for the method and conditions named. Binding seen in cells or lysates may run through a third protein. Some results given as binding are weak or reduced against the parent protein; the word gives no strength."}
{"substance": "GPR50-V1 and GPR50-V2 homodimer (GPR50 fused to the V1 or V2 segment of Venus, BiCAP bait) (from UniProt Q13585 1-617) (receptor)", "values": [{"measurement": "binding", "value": "binds"}]}
